Results deposited as PubChem BioAssay AID1508588 (Peter MacCallum Cancer Centre, 2020)
This is a random part of about 18,000 deposited reagents. 790 of all reagents (4.4%) were called active. 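Calls rest on a combination of fold-change classes in drug and vehicle arms, not all shown here.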 A number with no mark means an inactive call.

Aim: 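Knock-downs boosting vemurafenib effects on melanoma cell growth or lactate release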 (primary screen)
Cell system: human WM266.4 melanoma cells (BRAF V600 mutant)
Reagents: siRNA pool against human genes, 40 nM
Timing: 96 h from transfection to read-out
Conditions: vemurafenib 300 nM (about IC25), added 48 h after transfection, for 48 h; comparison arm got DMSO vehicle only
Read-out: 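Ratios to non-targeting siRNA for cell gain, counted as DAPI nuclei after minus before drug and averaged over two replicates, and for absorbance-read medium lactate per cell; both binned into fold-change classes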
Reading the numbers: cell gain with vemurafenib: higher = more cell gain than with non-targeting siRNA; lactate per cell with vemurafenib: higher = more lactate made per cell
Active means: 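Enhancement is called by pairing each knock-down's vehicle-arm and drug-arm fold-change classes for viability or glycolysis; which class combinations qualify is not given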
Meaning of the calls: active = enhances vemurafenib effect; inactive = no enhancement seen

cell gain with vemurafenib	lactate per cell with vemurafenib	gene
0.59	0.34	LRRC46
0.53	1.19	PTMA
0.65	0.56	CD46
0.16	2.43	PEAK3
0.79	1.02	CIITA
0.94	0.59	UBE2E1
0.53	1	PEX11A
0.45	1.02	CAVIN4
0.42	1.31	PMFBP1
0.57	1.65	DDHD2
0.83	0.85	GRPEL2
0.85	1.36	CLBA1
0.29	1.98	RTL6
0.58	0.94	TMCC1
0.98	1.1	MLLT11
0.44	0.94	MALT1
0.73	0.54	BOLA3
0.77	0.92	GPNMB
0.25	0.66	HELZ
0.24	2.17	SOX10
0.83	0.7	SLC2A1
0.11	2.21	HGH1
0.63	1.28	COA7
0.78	0.79	ABCG1
0.24 (active)	0.06	CYSTM1
0.39	0.98	RAB40A
0.12	2.02	OR4N2
0.21	1.36	ZNF710

Targets above whose target name starts with S or s (2):
cell gain with vemurafenib	lactate per cell with vemurafenib	gene
0.24	2.17	SOX10
0.83	0.7	SLC2A1

Further reagents follow:
cell gain with vemurafenib	lactate per cell with vemurafenib	gene
0.22	1.22	SMS
0.66 (active)	0	MNS1
1.12	0.82	TTC14
0.13	1.6	TMEM91
0.31	1.13	HASPIN
0.15 (active)	0.16	SGTA
0.29	1.15	DEFB103B
0.82	0.97	SIRT1
0.49 (active)	0.45	PCDH19
0.76	0.62	KRTAP6-3
0.37	1.7	M1AP
0.33	0.56	NUMBL
0.45 (active)	0.28	CREBRF
0.23	1.44	ZNF502
0.93	0.52	USP45
0.23	0.78	PF4
0.62 (active)	0.62	ATIC
0.34	0.93	NMRAL1
0.58	1.66	KIR3DS1
0.46	0.76	SCRN1
0.23	1.46	NPM2
0.78	0.6	LIAT1
0.76	0.36	CYP7B1
0.44	0.84	PYY
0.61 (active)	0.17	FGB
0.61	0.52	HSD17B4
1.05	0.5	XRCC5
0.75	0.79	TNFRSF11B
0.54	0.48	NDUFA7
0.56	1.35	MUC4
0.15	0.75	C11orf52
0.45	0.47	SLC7A1
0.3	0.57	RANBP3
0.34	1.24	ZNF347
0.32	1.12	PCDHB15
0.25	0.84	PERP
-0.02	1.64	RBFOX2
0.63 (active)	0.32	PPIA
0.53	1	MTA1
0.25 (active)	0.6	BASP1
0.44	1.51	MSI2
1.06	0.82	FOXL2
0.21	1.28	ESPL1
0.45 (active)	0.68	GSR
1.28	0.49	DEFB108B
0.49	1.47	TAS2R41
0.47	0.62	PER2
0.65 (active)	0.35	TRPT1
0.44	0.78	TUBD1
0.41	2.02	GABARAPL2
1.02	1.21	TMEM198
0.49	0.76	OR2C1
0.6	0.84	AACS
0.11	1.84	UBXN6
0.69	0.6	GMPS
0.26 (active)	0.2	MOB3B
